PubChem BioAssay AID1688 (National Center for Advancing Translational Sciences (NCATS), 2009)
The campaign covered roughly 220,000 compounds. About 2,400 (1.1%) were called active. The shares of active, inactive and inconclusive entries below differ from those in the screen. The call rests on the fitted dose curve; in most records, active means well fitted inhibition curve with a large enough effect; inconclusive means small, poorly fitted or top-dose-only effect, or effect the other way; inactive means no such curve, though single readings can be large or run the other way. Potencies of inconclusive entries are doubtful fits and often do not repeat.

test: qHTS Multiplex Assay to Identify Dual Action Probes in a Cell Model of Huntington: Aggregate Formation (GFP); conditions: PC12 HttQ103-GFP aggregates, Acumen cytometry, 40 h; activity change, negative = inhibition: at 46.1 µM (top of the series) unless noted; further: nearly all actives have a fitted effect of over 60% in size
Procedure, shortened: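 Inducible Q103 Huntingtin exon 1–GFP PC12 line, 1500 cells/well in phenol red free DMEM with 5% equine and 5% calf serum. Tebufenozide 100 nM induced expression; compounds titrated; aggregates quantified by cytometry.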
On the % scale 0 is the no-effect control and ±100 the full control effect; potency means the concentration at half of the fitted maximal effect.

Compound	Potency	activity change, negative = inhibition
Cc1cc(C)c2c(-n3cccc3)c(NC(=O)OC(C)C)sc2n1	inconclusive: 5.62 µM [inhibitor, single point]	–
O=C(NC(Cc1cc(=O)[nH]c2ccccc12)C(=O)O)c1ccc(Cl)cc1 (stereo not given)	inactive	–
Cc1nc([N+](=O)[O-])c(Br)n1CC(=O)c1ccc(Cl)cc1	inconclusive: 35.5 µM [inhibitor, single point]	–
CCOC(=O)Nc1cccc(NC(=O)c2cc(OC)cc(OC)c2)c1	inconclusive: 22.4 µM [inhibitor, single point]	–
O=C(CSc1ncn[nH]1)Nc1ccnc2ccccc12	active: 11.2 µM	–
Cc1cc(=O)oc2cc(OCC(=O)N3CCCc4ccccc43)ccc12	inactive	–
O=C(CSc1ccc(Cl)cc1)c1ccco1	inconclusive: 17.8 µM [inhibitor, single point]	–
Nc1nc(CN2CCN(Cc3ccccc3)CC2)nc(N2CCCc3ccccc32)n1	inconclusive: 15.8 µM [activator, partial curve, poor fit]	–
CC(C)(C)c1ccc(CN2C3=NCCCN3c3ccccc32)cc1	inconclusive: 35.5 µM [inhibitor, single point]	–
COC(=O)c1cc(Cl)c(NC(=O)/C=C/c2ccc(Cl)cc2Cl)cc1OC	inactive	–
CC(O)CNC(=O)C1CCN(Cc2ccc(OCc3ccccc3)cc2)CC1 (stereo not given)	inactive	–
Cc1n[nH]c(C)c1N1C(=O)c2cccc3c(N4CCCCCC4)ccc(c23)C1=O	inconclusive: 35.5 µM [inhibitor, single point]	–
Cc1cccc(C)c1-n1c(C)cc(/C=N/NC(=O)c2ccncc2)c1C	inconclusive: 7.94 µM [activator, partial curve]	–
COc1cccc(/C=N/NC(=O)COc2cccc3cccnc23)c1O	inconclusive: 14.1 µM [inhibitor, single point]	–
CCN1C(=O)CC(C(=O)Nc2ccc(F)cc2)SC1=Nc1ccc2c(c1)OCO2 (stereo not given)	inconclusive: 35.5 µM [inhibitor, single point]	–
Cn1c(SCC(=O)Nc2ccc3c(c2)oc2ccccc23)nnc1-c1ccccc1	inactive	–
O=C(NCCCn1ccnc1)c1cc(-c2ccccc2)on1	inconclusive: 2.82 µM [activator, partial curve]	–
O=c1c2ccccc2nc2n1C(CSCc1cccc(C(F)(F)F)c1)CS2 (stereo not given)	inconclusive: 11.2 µM [inhibitor, partial curve, poor fit]	–
CC1=CC(=C2C(=O)c3ccccc3C2=O)C=C(C)N1Cc1ccco1	inactive	–
CC1CCN(c2ncnc3ccccc23)CC1	active: 22.4 µM	–
COc1ccc(CCN2C(=O)CC(Cc3ccccc3)C2=O)cc1OC (stereo not given)	–	inactive: 8.73% [at 9.22 µM]
O=C(O)CCCC(=O)N1N=C(c2ccccc2)CC1c1cccs1 (stereo not given)	inconclusive: 0.316 µM [activator, partial curve]	–
N#CCCn1cc(C(=O)N2CCOCC2)c(-c2ccc3c(c2)OCCO3)n1	inconclusive: 35.5 µM [inhibitor, single point]	–
CCn1c(CSCc2ccc(F)cc2)nnc1SCC(=O)N1CCN(c2ccccc2)CC1	inconclusive: 6.31 µM [inhibitor, full curve, poor fit]	–

Record cards (already shown). Values in the order: Potency	activity change, negative = inhibition
`O=C(NC(Cc1cc(=O)[nH]c2ccccc12)C(=O)O)c1ccc(Cl)cc1` (stereo not given) is entered as inactive	–
`O=C(NCCCn1ccnc1)c1cc(-c2ccccc2)on1` is entered as inconclusive: 2.82 µM [activator, partial curve]	–
`COC(=O)c1cc(Cl)c(NC(=O)/C=C/c2ccc(Cl)cc2Cl)cc1OC` is entered as inactive	–
`CCn1c(CSCc2ccc(F)cc2)nnc1SCC(=O)N1CCN(c2ccccc2)CC1` is entered as inconclusive: 6.31 µM [inhibitor, full curve, poor fit]	–

Additional entries:

Compound	Potency	activity change, negative = inhibition
C=CCN(C(=O)C1=NN(C2CCS(=O)(=O)C2)C(=O)CC1)c1nc(-c2ccc([N+](=O)[O-])cc2)cs1 (stereo not given)	inconclusive: 3.16 µM [activator, full curve]	–
Cc1nc2ccc(NC(=O)c3ccccc3)cc2s1	inconclusive: 0.501 µM [activator, full curve, poor fit]	–
O=C(NC(=S)Nc1ccccc1N1CCCC1)c1ccc(-c2cccc([N+](=O)[O-])c2)o1	inconclusive: 6.31 µM [activator, full curve]	–
O=C(CCl)N=c1sccn1Cc1ccc(Cl)cc1Cl	inconclusive: 35.5 µM [inhibitor, single point]	–
O=C(Nc1ccccc1Cl)c1cc(S(=O)(=O)N2CCCC(C(=O)O)C2)ccc1F (stereo not given)	inconclusive: 3.98 µM [activator, full curve, poor fit]	–
COc1cc2c(cc1NC(=O)CN1C(=O)NC3(CCc4ccccc43)C1=O)oc1ccccc12 (stereo not given)	inconclusive: 35.5 µM [inhibitor, single point]	–
Cn1nnc(NC(=O)c2ccco2)n1	inactive	–
O=c1c2cc(Br)ccc2nc(-c2ccc([N+](=O)[O-])cc2)n1O	active: 11.2 µM	–
O=c1c2c(nc3c(-c4cccc5ccccc45)c[nH]n13)CCC2	inconclusive: 35.5 µM [inhibitor, single point]	–
CC(C)C(=O)N(Cc1ccc(F)cc1)Cc1nc2ccccc2c(=O)[nH]1	–	inactive: 19.7% [at 9.22 µM]
COc1ccc(OC)c(C2C=C(C34CC5CC(CC(C5)C3)C4)NC(=S)N2)c1 (stereo not given)	inconclusive: 31.6 µM [inhibitor, single point]	–
COC(=O)CN1C(=O)S/C(=C/c2ccc(N3CCCCC3)o2)C1=O	inconclusive: 20 µM [activator, single point]	–
COc1ccc(/C=C/c2nc3ccccc3n2Cc2ccccc2OC)cc1	inconclusive: 17.8 µM [inhibitor, single point]	–
CCCC(=O)Nc1ccc2c(c1)nc1n2CCSC1	inconclusive: 1.26 µM [inhibitor, single point]	–
COC(=O)N1CC=CC1(C)C(=O)NCc1cc(F)cc(C(F)(F)F)c1 (stereo not given)	inconclusive: 10 µM [activator, partial curve, poor fit]	–
O=C(N/N=C/c1ccccc1OCc1ccccc1)c1cccnc1	inconclusive: 17.8 µM [inhibitor, single point]	–
C=CCNc1ncnc2ccc(Br)cc12	inconclusive: 1.12 µM [inhibitor, full curve]	–
Cc1ccc(C(=O)CC2(O)C(=O)N(Cc3ccccc3Cl)c3ccccc32)o1 (stereo not given)	active: 3.16 µM	–
Cc1ccc(CCN2CC(C(=O)NCCCN3CCN(C)CC3)CC2=O)cc1 (stereo not given)	inconclusive: 5.01 µM [activator, single point]	–
CCc1cc(C(=O)c2ccc(OC)cc2)c(NC(=O)CN2CCN(C)CC2)s1	–	inactive: -4.7% [at 9.22 µM]
Cc1cc(N2CCC(C)CC2)nc(SCC(=O)c2ccccc2)n1	inconclusive: 35.5 µM [inhibitor, single point]	–
Cc1cc2ccccn2c1C(=O)c1ccc(Cl)c([N+](=O)[O-])c1	inconclusive: 12.6 µM [inhibitor, single point]	–
CCOc1ccc(C(=O)Nc2ccc(Cc3ccncc3)cc2)cc1Br	inconclusive: 10 µM [inhibitor, partial curve]	–
CC(C(=O)N=c1sc2ccccc2n1C)N1C(=O)C2CC=CCC2C1=O (stereo not given)	inconclusive: 12.6 µM [inhibitor, partial curve, poor fit]	–

Compound	Potency	activity change, negative = inhibition
CCOC(=O)Cc1csc(NC(=O)CCS(=O)(=O)Cc2ccccc2)n1	inactive	–
O=C(COc1ccc2c(c1)CCC2)NCc1cccc(Cl)c1	inconclusive: 3.98 µM [inhibitor, single point]	–
Cc1ccc2c(c1)c1c(n2CC(O)CNC2CCCCC2)CCCC1 (stereo not given)	inconclusive: 35.5 µM [inhibitor, single point]	–
Cc1ccc(-c2cc(C(=O)Nc3ccccn3)c3ccccc3n2)o1	inconclusive: 17.8 µM [activator, single point]	–
CCn1c(=O)cc(SCC(=O)Nc2ccc(C)cn2)c2ccccc21	inconclusive: 35.5 µM [inhibitor, single point]	–
Cc1ccc(C(=O)NC(=C(Cl)Cl)S(=O)(=O)c2ccc(Cl)cc2)cc1	inconclusive: 31.6 µM [inhibitor, single point]	–
O=C(CN1CCSCC1)N1CCc2[nH]c3ccc(Br)cc3c2C1	inactive	–
COc1ccc2c(c1)C(=O)N(c1ccc(C)cc1C)C(=O)C2	inactive	–
O=C(NCCNc1ccc([N+](=O)[O-])cc1C(F)(F)F)c1ccc(F)cc1	inconclusive: 20 µM [inhibitor, single point]	–
CC(=O)Nc1ccc(S(=O)(=O)N2CCN(CCCOc3cc(C)ccc3C)CC2)cc1	inconclusive: 22.4 µM [inhibitor, single point]	–
CCNC(=O)COc1ccc(Br)cc1Cl	inactive	–
CC(C)Cn1c(CN2CCN(C(=O)c3ccco3)CC2)nc2c1c(=O)n(C)c(=O)n2C	inactive	–
N#Cc1c(C#N)c(O)c2ccccc2c1O	–	inactive: -30.4% [at 9.22 µM]
CCC(C)NS(=O)(=O)c1ccc(S(=O)(=O)Nc2cc3c(cc2C(C)=O)OCO3)cc1 (stereo not given)	active: 12.6 µM	–
Cc1c(C#N)c(NC(=O)CCl)n(Cc2ccc(F)cc2)c1C	active: 6.31 µM	–
CCCN1CCN(C(=S)Nc2ccc([N+](=O)[O-])cc2)CC1	inactive	–
Cc1ccc(-c2nnc(Nc3ccc4c(c3)nc(C)n4C)c3ccccc23)cc1	inconclusive: 3.98 µM [activator, partial curve]	–
Cc1ccsc1C1C(C#N)=C(N)N(N(C)C)C2=C1C(=O)CC(C)(C)C2 (stereo not given)	inactive	–
COc1cc(/C=C\C(=O)NCc2ccc3[nH]c(C)cc3c2)cc(OC)c1OC	inconclusive: 31.6 µM [activator, single point]	–
COC(=O)c1cc(COC(=O)c2ccc3ccccc3n2)oc1C	inconclusive: 3.55 µM [inhibitor, partial curve]	–
O=C1N=C(N2CCOCC2)S/C1=C\c1ccc(OS(=O)(=O)c2ccccc2)cc1	–	inactive: -0.277% [at 9.22 µM]
COc1ccccc1OCC(=O)OCn1c(SC)nnc(C)c1=O	inconclusive: 35.5 µM [inhibitor, partial curve]	–
